Assay results reported in the supplement of paper PMC11006884.
The list shows a part of the results, in another mix than the full data.

Protein sequences, listed by entry. Tags and fused reporters are not part of them. Lines headed by an entry give the natural chain unless they say otherwise; changes in a name come on top.
UniProt Q969T7: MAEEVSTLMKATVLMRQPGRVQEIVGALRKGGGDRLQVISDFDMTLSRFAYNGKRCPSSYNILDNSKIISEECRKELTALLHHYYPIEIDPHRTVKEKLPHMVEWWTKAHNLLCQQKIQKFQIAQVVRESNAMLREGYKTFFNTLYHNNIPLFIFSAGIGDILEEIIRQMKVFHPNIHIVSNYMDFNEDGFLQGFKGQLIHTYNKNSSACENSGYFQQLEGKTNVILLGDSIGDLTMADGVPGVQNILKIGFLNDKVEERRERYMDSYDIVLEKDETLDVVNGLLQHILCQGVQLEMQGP
UniProt Q92797: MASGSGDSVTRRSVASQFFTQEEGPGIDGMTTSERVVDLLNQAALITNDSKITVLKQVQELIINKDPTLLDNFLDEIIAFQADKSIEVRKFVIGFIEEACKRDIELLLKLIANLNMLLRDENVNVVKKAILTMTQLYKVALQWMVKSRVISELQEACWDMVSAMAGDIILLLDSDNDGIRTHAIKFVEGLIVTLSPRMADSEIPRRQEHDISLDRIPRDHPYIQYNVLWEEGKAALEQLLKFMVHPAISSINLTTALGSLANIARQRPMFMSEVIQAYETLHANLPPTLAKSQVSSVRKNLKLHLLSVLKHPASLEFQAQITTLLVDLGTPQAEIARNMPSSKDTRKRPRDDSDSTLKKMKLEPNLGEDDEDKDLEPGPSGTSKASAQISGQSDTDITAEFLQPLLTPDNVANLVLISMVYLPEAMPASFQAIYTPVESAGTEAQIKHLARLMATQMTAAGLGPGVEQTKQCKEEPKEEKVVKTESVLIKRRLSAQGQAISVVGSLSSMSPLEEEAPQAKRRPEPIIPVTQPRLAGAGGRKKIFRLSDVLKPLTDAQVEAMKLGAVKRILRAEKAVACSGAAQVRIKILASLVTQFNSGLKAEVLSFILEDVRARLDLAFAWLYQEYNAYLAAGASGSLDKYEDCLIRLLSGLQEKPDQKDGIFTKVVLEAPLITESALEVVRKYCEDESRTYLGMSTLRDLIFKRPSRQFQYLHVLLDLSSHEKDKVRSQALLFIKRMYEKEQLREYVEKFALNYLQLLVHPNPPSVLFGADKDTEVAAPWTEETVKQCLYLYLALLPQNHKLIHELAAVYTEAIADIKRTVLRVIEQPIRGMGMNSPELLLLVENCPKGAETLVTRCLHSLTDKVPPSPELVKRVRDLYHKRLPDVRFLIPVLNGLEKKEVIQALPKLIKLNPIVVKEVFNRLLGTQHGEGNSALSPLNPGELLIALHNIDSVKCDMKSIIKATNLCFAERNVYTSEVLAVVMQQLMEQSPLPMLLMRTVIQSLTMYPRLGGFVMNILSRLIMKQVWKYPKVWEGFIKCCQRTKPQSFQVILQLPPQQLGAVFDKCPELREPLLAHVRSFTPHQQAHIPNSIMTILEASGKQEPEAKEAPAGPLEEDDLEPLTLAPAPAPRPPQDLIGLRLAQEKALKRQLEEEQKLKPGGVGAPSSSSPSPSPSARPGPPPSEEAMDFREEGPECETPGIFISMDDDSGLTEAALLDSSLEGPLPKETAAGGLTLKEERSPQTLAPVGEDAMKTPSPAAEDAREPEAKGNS
UniProt Q96F63: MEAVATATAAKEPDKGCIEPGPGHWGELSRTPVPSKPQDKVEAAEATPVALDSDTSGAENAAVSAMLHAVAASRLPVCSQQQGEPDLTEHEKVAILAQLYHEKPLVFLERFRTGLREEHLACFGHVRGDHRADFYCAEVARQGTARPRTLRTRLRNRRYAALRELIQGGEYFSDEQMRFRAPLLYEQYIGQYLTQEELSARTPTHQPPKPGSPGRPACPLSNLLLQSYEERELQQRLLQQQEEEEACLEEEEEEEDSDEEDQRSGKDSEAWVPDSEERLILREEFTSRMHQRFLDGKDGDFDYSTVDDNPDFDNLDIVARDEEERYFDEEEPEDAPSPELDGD
UniProt Q96AP0: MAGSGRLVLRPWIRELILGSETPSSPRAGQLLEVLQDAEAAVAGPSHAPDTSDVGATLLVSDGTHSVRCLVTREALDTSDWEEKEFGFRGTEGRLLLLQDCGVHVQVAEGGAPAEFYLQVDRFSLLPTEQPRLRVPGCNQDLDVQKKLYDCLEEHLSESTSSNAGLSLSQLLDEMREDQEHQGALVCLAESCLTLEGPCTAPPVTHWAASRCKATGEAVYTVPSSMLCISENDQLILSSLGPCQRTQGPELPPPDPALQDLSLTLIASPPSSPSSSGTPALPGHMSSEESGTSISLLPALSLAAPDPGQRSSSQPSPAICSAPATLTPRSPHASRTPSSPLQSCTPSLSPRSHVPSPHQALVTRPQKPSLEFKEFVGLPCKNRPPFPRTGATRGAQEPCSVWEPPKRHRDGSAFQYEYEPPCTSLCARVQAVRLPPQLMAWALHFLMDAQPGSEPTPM
UniProt Q92538, whole entry, looked up: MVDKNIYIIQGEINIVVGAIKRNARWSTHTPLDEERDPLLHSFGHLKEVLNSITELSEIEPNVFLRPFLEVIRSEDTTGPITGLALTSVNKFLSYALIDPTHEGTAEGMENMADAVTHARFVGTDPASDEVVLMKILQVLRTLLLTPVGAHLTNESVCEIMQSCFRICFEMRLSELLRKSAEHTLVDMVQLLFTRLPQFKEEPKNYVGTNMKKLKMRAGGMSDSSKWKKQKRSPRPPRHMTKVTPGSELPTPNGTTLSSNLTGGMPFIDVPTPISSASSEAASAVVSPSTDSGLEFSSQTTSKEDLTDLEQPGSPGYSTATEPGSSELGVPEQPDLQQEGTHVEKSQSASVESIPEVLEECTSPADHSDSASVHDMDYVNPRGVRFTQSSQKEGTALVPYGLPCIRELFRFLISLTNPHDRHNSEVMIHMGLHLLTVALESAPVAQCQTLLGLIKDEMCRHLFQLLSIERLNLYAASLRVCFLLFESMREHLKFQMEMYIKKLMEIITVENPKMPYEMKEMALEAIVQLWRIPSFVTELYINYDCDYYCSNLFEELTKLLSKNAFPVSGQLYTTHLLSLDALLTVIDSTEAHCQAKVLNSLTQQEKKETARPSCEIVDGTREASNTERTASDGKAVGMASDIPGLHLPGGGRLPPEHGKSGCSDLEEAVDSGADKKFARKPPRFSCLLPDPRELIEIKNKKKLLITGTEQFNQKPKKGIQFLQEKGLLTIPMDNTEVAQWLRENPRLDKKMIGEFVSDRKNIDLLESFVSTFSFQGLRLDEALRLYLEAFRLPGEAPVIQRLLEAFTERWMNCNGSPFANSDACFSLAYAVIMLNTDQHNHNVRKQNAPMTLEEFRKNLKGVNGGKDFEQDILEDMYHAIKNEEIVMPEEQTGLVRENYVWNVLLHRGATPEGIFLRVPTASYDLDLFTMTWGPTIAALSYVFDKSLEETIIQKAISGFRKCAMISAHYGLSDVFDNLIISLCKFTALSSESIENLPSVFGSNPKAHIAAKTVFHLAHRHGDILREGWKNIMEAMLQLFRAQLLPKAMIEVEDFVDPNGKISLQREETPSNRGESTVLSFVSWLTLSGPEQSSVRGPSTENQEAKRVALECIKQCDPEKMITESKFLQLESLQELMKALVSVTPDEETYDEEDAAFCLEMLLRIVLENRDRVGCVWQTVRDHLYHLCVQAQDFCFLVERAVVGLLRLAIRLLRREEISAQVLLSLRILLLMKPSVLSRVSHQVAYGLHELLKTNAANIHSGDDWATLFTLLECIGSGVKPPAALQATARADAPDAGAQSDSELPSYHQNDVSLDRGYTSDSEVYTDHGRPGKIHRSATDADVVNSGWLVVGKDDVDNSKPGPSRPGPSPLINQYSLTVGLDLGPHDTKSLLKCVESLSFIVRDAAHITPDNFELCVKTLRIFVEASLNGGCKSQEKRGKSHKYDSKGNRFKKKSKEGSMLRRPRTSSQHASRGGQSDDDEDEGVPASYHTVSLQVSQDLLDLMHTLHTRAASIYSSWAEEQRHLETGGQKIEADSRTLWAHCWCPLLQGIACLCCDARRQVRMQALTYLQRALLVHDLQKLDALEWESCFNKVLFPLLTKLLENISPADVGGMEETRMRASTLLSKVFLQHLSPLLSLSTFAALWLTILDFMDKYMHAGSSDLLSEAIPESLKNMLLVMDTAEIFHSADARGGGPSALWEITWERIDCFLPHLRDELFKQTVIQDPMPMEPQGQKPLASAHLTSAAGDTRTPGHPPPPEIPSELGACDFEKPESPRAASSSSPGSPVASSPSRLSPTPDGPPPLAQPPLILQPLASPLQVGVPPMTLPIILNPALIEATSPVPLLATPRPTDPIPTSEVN
UniProt Q96HA1, whole entry, looked up: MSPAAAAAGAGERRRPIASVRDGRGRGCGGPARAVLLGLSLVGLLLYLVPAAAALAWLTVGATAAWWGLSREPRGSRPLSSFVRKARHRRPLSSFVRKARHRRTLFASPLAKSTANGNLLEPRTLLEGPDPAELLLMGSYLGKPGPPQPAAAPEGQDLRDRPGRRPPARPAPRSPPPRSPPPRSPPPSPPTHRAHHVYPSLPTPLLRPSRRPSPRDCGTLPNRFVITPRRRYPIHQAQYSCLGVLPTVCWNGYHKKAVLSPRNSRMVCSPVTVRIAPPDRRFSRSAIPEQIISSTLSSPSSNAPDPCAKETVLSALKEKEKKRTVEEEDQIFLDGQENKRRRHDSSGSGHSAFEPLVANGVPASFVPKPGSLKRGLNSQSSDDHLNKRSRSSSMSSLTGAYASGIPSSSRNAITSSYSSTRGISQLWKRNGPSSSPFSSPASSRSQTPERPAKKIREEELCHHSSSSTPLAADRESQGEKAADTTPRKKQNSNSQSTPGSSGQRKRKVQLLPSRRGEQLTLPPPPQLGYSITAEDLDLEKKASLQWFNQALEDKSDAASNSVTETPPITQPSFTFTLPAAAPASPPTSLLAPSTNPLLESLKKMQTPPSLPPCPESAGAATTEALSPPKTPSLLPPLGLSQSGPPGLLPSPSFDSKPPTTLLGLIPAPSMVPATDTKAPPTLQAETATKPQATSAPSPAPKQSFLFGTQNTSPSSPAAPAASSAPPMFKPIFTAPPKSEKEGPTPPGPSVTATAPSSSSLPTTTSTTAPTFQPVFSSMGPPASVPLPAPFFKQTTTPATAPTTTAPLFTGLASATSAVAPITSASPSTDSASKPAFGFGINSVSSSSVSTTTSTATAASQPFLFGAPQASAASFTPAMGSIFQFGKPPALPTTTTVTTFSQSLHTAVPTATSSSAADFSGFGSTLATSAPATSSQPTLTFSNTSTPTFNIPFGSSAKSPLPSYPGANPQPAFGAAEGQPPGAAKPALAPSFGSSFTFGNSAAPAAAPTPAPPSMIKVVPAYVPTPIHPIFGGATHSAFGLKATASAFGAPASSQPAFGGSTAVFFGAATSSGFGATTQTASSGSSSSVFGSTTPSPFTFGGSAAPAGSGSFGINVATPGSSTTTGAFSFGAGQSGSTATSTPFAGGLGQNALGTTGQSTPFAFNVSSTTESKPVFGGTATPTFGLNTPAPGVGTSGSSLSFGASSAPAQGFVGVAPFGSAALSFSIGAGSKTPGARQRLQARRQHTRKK
UniProt Q92747, whole entry: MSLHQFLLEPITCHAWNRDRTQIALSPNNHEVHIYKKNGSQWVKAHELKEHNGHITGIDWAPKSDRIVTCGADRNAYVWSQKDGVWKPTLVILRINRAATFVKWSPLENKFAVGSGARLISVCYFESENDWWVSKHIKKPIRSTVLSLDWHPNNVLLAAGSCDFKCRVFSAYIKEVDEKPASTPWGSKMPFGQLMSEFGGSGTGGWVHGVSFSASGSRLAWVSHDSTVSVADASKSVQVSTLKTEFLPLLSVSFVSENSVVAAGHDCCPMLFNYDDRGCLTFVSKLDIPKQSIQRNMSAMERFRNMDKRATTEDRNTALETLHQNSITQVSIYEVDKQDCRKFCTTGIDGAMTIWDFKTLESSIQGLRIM
UniProt Q96F86: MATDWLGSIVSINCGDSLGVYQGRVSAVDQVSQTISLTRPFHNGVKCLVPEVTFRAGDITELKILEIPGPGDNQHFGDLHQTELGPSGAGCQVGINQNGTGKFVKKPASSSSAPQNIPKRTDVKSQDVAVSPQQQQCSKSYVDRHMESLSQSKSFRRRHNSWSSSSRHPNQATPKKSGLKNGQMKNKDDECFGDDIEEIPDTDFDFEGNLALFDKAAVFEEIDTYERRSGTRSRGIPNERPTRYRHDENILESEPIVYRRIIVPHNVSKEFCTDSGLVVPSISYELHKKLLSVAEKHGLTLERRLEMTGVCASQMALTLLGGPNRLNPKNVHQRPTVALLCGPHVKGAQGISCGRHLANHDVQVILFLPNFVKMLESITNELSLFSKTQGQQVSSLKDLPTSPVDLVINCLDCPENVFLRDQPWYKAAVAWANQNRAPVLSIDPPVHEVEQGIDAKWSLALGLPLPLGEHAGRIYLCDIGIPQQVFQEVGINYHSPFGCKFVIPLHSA

Compound: COC(=O)C#Cc1ccccc1 [methyl 3-phenylpropiolate]
Assay: log2 ratio of iodoacetamide-alkyne labeling of the cysteine site, DMSO over compound (competition); higher = stronger covalent engagement of the cysteine by the compound, active = 1 or more
Conditions: 500 µM; treatment time 1 h; system: HEK293T cell lysate
In short: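 HEK293T lysate (2 mg/mL) was treated with DMSO or electrophile (500 µM, 1 h, ambient temperature), then iodoacetamide alkyne (1 h), clicked to sCIP-TMT reagents, pooled, trypsin-digested overnight at 37 °C, streptavidin-enriched and acid-eluted. Peptides were run on Orbitrap Eclipse LC-MS/MS with FAIMS and quantified in FragPipe. The log2 competition ratio per cysteine is mean control-channel over mean compound-channel reporter intensity. Duplicate channels and three replicates were used, and cysteines quantified in only one replicate were excluded.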

SAAL1 C248 (UniProt Q96ER3)
log2 ratio of iodoacetamide-alkyne labeling: inactive: 0.6

DAZAP1 C39 (UniProt Q96EP5)
log2 ratio of iodoacetamide-alkyne labeling: inactive: 0.0955

DDX27 C259 (UniProt Q96GQ7)
log2 ratio of iodoacetamide-alkyne labeling: inactive: 0.192

NT5C3B C210 (UniProt Q969T7)
log2 ratio of iodoacetamide-alkyne labeling: inactive: 0.461

SYMPK C686 (UniProt Q92797)
log2 ratio of iodoacetamide-alkyne labeling: inactive: 0.151

EXOSC8 C89 (UniProt Q96B26)
log2 ratio of iodoacetamide-alkyne labeling: inactive: -0.0354

USP9X C2075 (UniProt Q93008)
log2 ratio of iodoacetamide-alkyne labeling: inactive: 0.0811

PHF3 C1631 (UniProt Q92576)
log2 ratio of iodoacetamide-alkyne labeling: inactive: 0.733

UniProt Q96EY5_C90
log2 ratio of iodoacetamide-alkyne labeling: inactive: 0.176

ZC3HAV1L C7 (UniProt Q96H79)
log2 ratio of iodoacetamide-alkyne labeling: inactive: 0.269

RAD51AP1 C254 (UniProt Q96B01)
log2 ratio of iodoacetamide-alkyne labeling: inactive: 0.775

UniProt Q96C57_C161
log2 ratio of iodoacetamide-alkyne labeling: inactive: 0.107

CCDC97 C136 (UniProt Q96F63)
log2 ratio of iodoacetamide-alkyne labeling: inactive: 0.0442

UniProt Q96FZ2_C131
log2 ratio of iodoacetamide-alkyne labeling: inactive: 0.711

DPF2 C295 (UniProt Q92785)
log2 ratio of iodoacetamide-alkyne labeling: inactive: 0.175

UniProt Q96G28_C138
log2 ratio of iodoacetamide-alkyne labeling: inactive: 0.0764

DAZAP1 C85 (UniProt Q96EP5)
log2 ratio of iodoacetamide-alkyne labeling: inactive: -0.0499

LPP C262 (UniProt Q93052)
log2 ratio of iodoacetamide-alkyne labeling: inactive: 0.291

UniProt Q92888_C892
log2 ratio of iodoacetamide-alkyne labeling: inactive: 0.0678

ACD C406 (UniProt Q96AP0)
log2 ratio of iodoacetamide-alkyne labeling: inactive: 0.713

ARHGEF2 C335 (UniProt Q92974)
log2 ratio of iodoacetamide-alkyne labeling: inactive: 0.389

OTUB1 C23 (UniProt Q96FW1)
log2 ratio of iodoacetamide-alkyne labeling: inactive: 0.333

HSPH1 C34 (UniProt Q92598)
log2 ratio of iodoacetamide-alkyne labeling: inactive: -0.0617

PSMG2 C168 (UniProt Q969U7)
log2 ratio of iodoacetamide-alkyne labeling: inactive: 0.126

MASTL C285 (UniProt Q96GX5)
log2 ratio of iodoacetamide-alkyne labeling: active: 1.02

MRPL38 C143 (UniProt Q96DV4)
log2 ratio of iodoacetamide-alkyne labeling: inactive: 0.2

TOE1 C271 (UniProt Q96GM8)
log2 ratio of iodoacetamide-alkyne labeling: inactive: -0.12

LIN37 C119 (UniProt Q96GY3)
log2 ratio of iodoacetamide-alkyne labeling: inactive: 0.255

GPKOW C394 (UniProt Q92917)
log2 ratio of iodoacetamide-alkyne labeling: inactive: -0.0148

UBXN4 C186 (UniProt Q92575)
log2 ratio of iodoacetamide-alkyne labeling: inactive: 0.474

UniProt Q96ES7_C243
log2 ratio of iodoacetamide-alkyne labeling: inactive: 0.131

GBF1 C661 (UniProt Q92538)
log2 ratio of iodoacetamide-alkyne labeling: inactive: 0.209

UniProt Q92888_C911
log2 ratio of iodoacetamide-alkyne labeling: inactive: 0.441

POM121 C461 (UniProt Q96HA1)
log2 ratio of iodoacetamide-alkyne labeling: inactive: 0.43

KHSRP C296 (UniProt Q92945)
log2 ratio of iodoacetamide-alkyne labeling: inactive: 0.00483

EFHD2 C172 (UniProt Q96C19)
log2 ratio of iodoacetamide-alkyne labeling: inactive: 0.169

ARPC1A C13 (UniProt Q92747)
log2 ratio of iodoacetamide-alkyne labeling: inactive: -0.0704

EDC3 C272 (UniProt Q96F86)
log2 ratio of iodoacetamide-alkyne labeling: inactive: 0.0953
